Reference: paper PMC11997217, “Inactivation of GH3.5 by COP1-mediated K63-linked ubiquitination promotes seedling hypocotyl elongation” (Nature Communications, 2025)
Results are given in words; binding and its absence hold for the method and conditions named. In cells and extracts the contact can be indirect. Here binding means that the protein was enriched with, or labelled near, the bait; the list need not be complete. Sequences can lack the tags named with a protein.

Target: T1, YFP-COP1 (Arabidopsis) (UniProt P43254)
T1 sequence: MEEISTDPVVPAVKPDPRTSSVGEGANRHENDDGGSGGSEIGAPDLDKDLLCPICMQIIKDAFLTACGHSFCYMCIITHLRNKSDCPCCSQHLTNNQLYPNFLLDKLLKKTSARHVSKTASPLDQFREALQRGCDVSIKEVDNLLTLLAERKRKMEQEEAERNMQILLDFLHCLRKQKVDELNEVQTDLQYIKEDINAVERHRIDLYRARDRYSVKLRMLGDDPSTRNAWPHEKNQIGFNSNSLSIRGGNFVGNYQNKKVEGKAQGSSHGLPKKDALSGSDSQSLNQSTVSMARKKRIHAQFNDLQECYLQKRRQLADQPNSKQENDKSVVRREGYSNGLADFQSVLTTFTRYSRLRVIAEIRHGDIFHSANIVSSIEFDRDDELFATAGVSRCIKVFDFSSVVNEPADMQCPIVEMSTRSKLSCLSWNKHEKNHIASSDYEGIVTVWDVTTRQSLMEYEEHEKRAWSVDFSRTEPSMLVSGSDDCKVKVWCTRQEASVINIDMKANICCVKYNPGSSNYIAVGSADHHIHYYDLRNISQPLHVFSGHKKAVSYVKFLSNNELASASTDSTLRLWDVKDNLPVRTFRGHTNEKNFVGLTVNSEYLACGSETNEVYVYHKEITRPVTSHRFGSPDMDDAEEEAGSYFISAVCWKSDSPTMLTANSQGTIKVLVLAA
Experiment: affinity purification with mass spectrometry; GFP-Trap beads (ChromoTek) on YFP-COP1 transgenic plants, IP-MS; hits also had to be found in a K63 TUBE capture dependent on COP1

binding: binds
B1: GH3.6 (enzyme, UniProt Q9LSQ4 1-612)
chain: MPEAPKIAALEVSDESLAEKNKNKLQFIEDVTTNADDVQRRVLEEILSRNADVEYLKRHGLEGRTDRETFKHIMPVVTYEDIQPEINRIANGDKSQVLCSNPISEFLTSSGTSGGERKLMPTIEEELDRRSLLYSLLMPVMDQFVPGLDKGKGMYFLFIKSESKTPGGLPARPVLTSYYKSSHFKNRPYDPYTNYTSPNQTILCSDSYQSMYSQMLCGLCQHKEVLRVGAVFASGFIRAIKFLEKHWPELARDIRTGTLSSEITDSSVREAVGEILKPDPKLADFVESECRKTSWQGIITRLWPNTKYVDVIVTGTMSQYIPTLDYYSNGLPLVCTMYASSECYFGVNLRPLCKPSEVSYTLIPNMAYFEFLPVHRNSGVTSSISLPKALTEKEQQELVDLVDVKLGQEYELVVTTYAGLYRYRVGDVLSVAGFKNNAPQFSFICRKNVVLSIDSDKTDEVELQNAVKNAVTHLVPFDASLSEYTSYADTSSIPGHYVLFWELCLNGNTPIPPSVFEDCCLTIEESLNSVYRQGRVSDKSIGPLEIKMVESGTFDKLMDYAISLGASINQYKTPRCVKFAPIIELLNSRVVDSYFSPKCPKWSPGHKQWGSN
